From PubChem BioAssay AID1347423 (Functional Genomics Laboratory (NCATS/FGL), 2020)
Screen size: about 52,000 sequences; about 210 (0.4%) were called active.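 How the source made its calls: active means gene whose silencing raises cell survival under the drug, median off-target-corrected z-score across its silencing RNAs 2 or more; inactive means the rest.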 The list shows a part of the results.

Assay: Resistance to Poly (ADP-Ribose) Polymerase inhibitor: Gene Identification via Genome-wide siRNA Screen
Details: mouse BRCA2 R2336H ES cells, olaparib, CellTiter-Glo viability; hits give high values
Summary of the method: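 Genome-wide siRNA screen (3 siRNAs/gene, 20 nM) in mouse ES cells carrying hypomorphic BRCA2 R2336H; olaparib 500 nM added 48 h post-transfection, CellTiter-Glo viability 72 h later. Normalized to plate-median negative control; MAD z-scores, gene median, seed-adjusted.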

Sequence | z-score
GCCAGGCAUCUACUUCAUUTT against Pep4 | inactive: 2.68
GCAAGUAAAUAUGAGAACATT against Plxna4 | inactive: -0.0479
CCGGUUCAGAUUUGGCUAATT against Icam4 | inactive: -0.517
GUAUGUUGACAUUUGCCUGTT against Olfr113 | inactive: 0.603
GCAGGGAGUGGUUUUAUGATT against Hoxb9 | inactive: -1.08
GCCGUCUCUGUGUCACAAATT against Sirt1 | inactive: -1.7
GGACACAUUAUCCAGUGACTT against A830041P22Rik | inactive: 1.01
GGCUUUUAUUGUCCUGAAUTT against Sah | inactive: 0.332
GGCCAAACACGUAUCUUUGTT against Snta1 | inactive: 0.329
GGAGACGAAGUGCUUAGGCTT against Gmip | inactive: 0.781
GGAGUGUUUUACCUCUUUCTT against Nudt13 | inactive: -2.5
GUCAUCAUGAACCAAGAGATT against Olfr713 | inactive: -0.171
GGCUGAGAAUUACUUAAACTT against 1700019E19Rik | inactive: 0.374
CCAUCUCAUUCCUUACCAGTT against MP4 | inactive: -1.87
GGCCCUGCCUACUAUCUAUTT against B3gat3 | inactive: 1.01
AUAUGUCUGUUUCUGCGAATT against V1rh2 | inactive: -0.362
CCUGUACUCUAUAUUCUGUTT against Pld2 | inactive: 0.118
CGACUUCACCUUAUUCCUGTT against BC018399 | inactive: 0.24
CCGCUAACUUGAUUGACGATT against Tcte1 | inactive: -0.0189
GCUCUCAGUGACCUUAGAATT against Dnaja1 | inactive: 0.119
GGCAAUUUUGGACAAACAGTT against Amy1 | inactive: 1.5
CCAUGCAACUUACCAAAGATT against Lrrc5 | inactive: -0.0693
GGUAAAAAGCCUUAUCAGUTT against Zfp146 | inactive: 0.725
GGAACAAAGAAGUAAUGUATT against Tbk1 | inactive: 0.188
GGUGAUUGUCUUGAUAUCCTT against Olfr1213 | inactive: 0.0445
GGCUUCCUGUUGGCAGUCATT against Olfr1413 | inactive: -1.31
GGAUGAUCAUUCUAGCUGUTT against 4921522K05Rik | inactive: 0.0935

Random excerpt: 3 records from the list, in no set order.
Sequence | z-score
CCGCUAACUUGAUUGACGATT against Tcte1 | inactive: -0.0189
CCAUCUCAUUCCUUACCAGTT against MP4 | inactive: -1.87
GGCUUUUAUUGUCCUGAAUTT against Sah | inactive: 0.332

Carrying on.

Sequence | z-score
GGACUUGAAACUUCUGGAUTT against 2310041H06Rik | inactive: 0.864
GGAACUGGAAAGGAAUCGCTT against Dpp6 | inactive: 0.624
AAACCAUACUUGAAAGAAATT against Olfr943 | inactive: -0.095
GCAUUCCAACGGAUUUAAUTT against Dag1 | inactive: 0.257
GGUCCUUAACCGCUAUGCATT against 9530027K23Rik | inactive: 0.514
CCUCGAUUAUAGCAAUACUTT against Slc16a14 | inactive: -0.578
GGCUAUUAACAUCUCAGUUTT against 4930418P06Rik | inactive: -1.12
GGAAAAUAAGCAUAGUGAUTT against Spesp1 | inactive: 0.159
GGGAAGUCACUGAAGCCUGTT against Akr7a5 | inactive: -0.538
GGAAUUUCUGUGGUGGAGATT against Ddit4 | inactive: 0.0089
CGUUGAUCUACGUUAUAAATT against Car6 | inactive: -0.1
AGAGGAAGCUCGAAAACGGTT against U2af1-rs2 | inactive: -1.4
CCCGGAGAAGUUUUUAUCATT against Sfpq | inactive: -0.0657
GGGCAAUUUGGACUGUUUUTT against Jam3 | inactive: 0.27
GGUGUGGGUGACAAGGUUATT against Ecgf1 | inactive: 0.833
CGAUGCUGAUGUAUCAAAGTT against Phkb | inactive: 0.316
GGAGCACAGAAAACACAAGTT against Cspg3 | inactive: 0.361
GGAACUCACUCUAUCUUUUTT against Gpr77 | inactive: 0.393
GCCCAUUGAAGAAAAACCCTT against Arid4b | inactive: 0.661
GCCAGUUAACUUUAGGGAGTT against Ywhaz | inactive: -0.774
GGGUCAGAAUAUUUGCUUCTT against Olfr325 | inactive: 0.133
GCUAAUGGACAGGUAAAUATT against 2010005A06Rik | inactive: 0.215
GCUCAUUUAUUCAGGAAGCTT against Zbtb9 | inactive: 0.825
GGGAGCUAAGAAGAUUCAUTT against 0610009K11Rik | inactive: 2.78
GGAAGAGCUGCUGAAUUCATT against Mthfd2 | inactive: 0.832
GGUGGAUUUAGUUUCUGCATT against C1d | inactive: 0.279
GGACGACUACAGCUAUGACTT against Klk1 | inactive: -0.359

An excerpt of these results, with tabs:
Sequence	z-score
GGAAAAUAAGCAUAGUGAUTT against Spesp1	inactive: 0.159
GGAAUUUCUGUGGUGGAGATT against Ddit4	inactive: 0.0089
CGAUGCUGAUGUAUCAAAGTT against Phkb	inactive: 0.316
GGAGCACAGAAAACACAAGTT against Cspg3	inactive: 0.361
GGGAGCUAAGAAGAUUCAUTT against 0610009K11Rik	inactive: 2.78

Remaining list, next part:

Sequence | z-score
GGACUGUCAGUACUGUCAATT against E030025L21Rik | inactive: -0.201
GCAAUAGAAAAGUCCGUGGTT against Zfyve20 | inactive: 0.359
GGAGUUUGUGAAUAAAUGUTT against Map2k2 | inactive: -1.05
GGACAAAUUCCUUCUUUUCTT against Olfr651 | inactive: 0.04
GGUCCAGAGAAUGUUAUUATT against 9530002K18Rik | inactive: -0.66
GGUGGAAAGUGCAUAGACATT against Notch3 | inactive: 0.0686
GGAACUGGAAAGAGUUCUUTT against Foxo1 | inactive: 0.00816
GGGAGGAAGUGUUCUUCUCTT against Psg18 | inactive: 0.154
GGAUGUGUUACUUACCAAATT against Mtap4 | inactive: -0.294
GCGGAUCUCUGAUUUAUAUTT against Traf5 | inactive: 0.147
CCCUUUGCUUAACCUUGCATT against Olfr1258 | inactive: 1.02
CCACUGUGAGACACAUAAGTT against 4933405I11Rik | inactive: -0.857
GGCCUACUUCCUACUCAAATT against Tbx10 | inactive: -0.176
GGAGGUGAAGCUCAUUGUCTT against Ildr1 | inactive: 0.00568
GGCCACUGACCAUGAAGAATT against Gata2 | inactive: -2.17
GGCUCAUCCAAAAUAGAGGTT against Napa | inactive: -0.261
GGCUUCUUCGCUCAGAAAUTT against Dnase2a | inactive: 0.959
GGUCAUGGAUGUCACAGAGTT against Map4k6 | inactive: -0.774
GUGCAGAUACUACCUACAATT against Olfr132 | inactive: -2.43
CGACCAGAGUUAUCUGAAUTT against Ctf2 | inactive: 0.21
GCACAGUGUAACUUAGGGCTT against Cenpb | inactive: 1.48
GGGUGUGCUUCAUAUCAAATT against 2210407C18Rik | inactive: 0.0134
GCUCACAAGAUGGUUCGGGTT against Rab3il1 | inactive: 0.678
GGUCUCCUACUUCCACUGCTT against 4833416I09Rik | inactive: -0.794
CCGACCUGAAGACCUUACATT against Tmem18 | inactive: 0.226
GGCGAAAUCUGCUAGAGUATT against 2700055K07Rik | inactive: 0.54
GGAAUACAAAAAUUACCUGTT against Bdnf | inactive: 0.816

Sequence | z-score
GGAGAGGAAGAUGAUAAAATT against Cdx4 | inactive: -1.79
GCGAUGAAGAGAACUUAAGTT against Pts | inactive: 0.00581
GCGAUCGCCAAAAUCCGGUTT against 2810004N20Rik | inactive: 0.542
GCAUUUUAGCCUUCGGACATT against C9 | inactive: 0.183
GCUACACAACUCUCCAUUATT against Crtam | inactive: -0.882
GCACAUACAGCUUAACAAATT against Nktr | inactive: 0.455
GGCAGUGAGUGAGUCACAGTT against 4932411E22Rik | inactive: -2.24
AGUCAUGAAGCAAAUGAUUTT against Olfr900 | inactive: -0.439
CCUAUACAUGCUACUGAACTT against Itga9 | inactive: -0.599
GGCCAAAUAACCACUGUGGTT against Lsm10 | inactive: -0.183
GGUUCUUUUAUGGAUGACATT against Prkaa2 | inactive: -1.15
GGUAGUAAGUGGCAGUCCUTT against Zic5 | inactive: -1.04
GGAGGUUUUGAAAUAGUCATT against Rbbp2 | inactive: 1.32
GCCGACAGCUCCUUUAACUTT against Scamp4 | inactive: -0.545
GGACCUGGAGAAAGUCAAGTT against Pacsin1 | inactive: 0.925
GGAGCUCAAAGACAAAGAATT against 4921528I01Rik | inactive: 0.392
CCCUAUGUCCGUUCCAAGGTT against Rpl18 | inactive: -1.23
GCCAAGGUAGAAUCUUGCCTT against Gsdmdc1 | inactive: 1.22
GAACCAGACUAAGAACUGUTT against Cox6b | inactive: 0.962
CGGCCAUUAACUCAUGCAATT against 1110021N19Rik | inactive: 0.567
GCAAUAAGCACCUUCCAUUTT against Gltp | inactive: -0.47
CGUGGGCCUAUGCUUGUCATT against Tsc1 | inactive: -0.641
GGAUUUCAAGGGAAUUUGATT against Wbp4 | inactive: 0.206
GCACCAGCUCUUUUGAUAUTT against BC016226 | inactive: -0.716
